According to the supplement of paper PMC8256030:
Some of the results follow. Single values are uncertain here, since repeats match poorly.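 HEK293T cells were given each compound shortly before transfection with a reporter in which red mCherry is followed by the SARS-CoV-2 frameshift element and then GFP in the −1 frame, so GFP appears only after frameshifting.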

These molecules were tested on SARS-CoV-2 -1 PRF reporter mCherry-FSE-GFP(-1) (assay: percent effect, decrease of GFP/mCherry ratio (-1 PRF reporter) relative to controls; higher = stronger frameshift inhibition). Settings: 10 µM; 24 h; HEK293T.
For `O=C(O)c1ccc[n+]([O-])c1` [oxiniacic acid], the percent effect was -1.63%.
In the case of `NC12CC3CC(CC(C3)C1)C2`, the percent effect is reported as -2.01%.
In the case of `CCCCCCCC(=O)O` [octanoic acid], the percent effect is reported as -2.31%.
With `CCn1cc(C(=O)O)c(=O)c2ccc(-c3ccncc3)cc21` [rosoxacin] the percent effect was 0.793%.
`CN1CCN(C2=Nc3cc(Cl)ccc3Nc3ccccc32)CC1` was tested, and the percent effect was -8.79%.
Work on `CN(C)/N=N/c1[nH]cnc1C(N)=O` [Dacarbazine] yielded a percent effect of -5.14%.
For `O=C(O)c1cc(=O)c2c(OCC(O)COc3cccc4oc(C(=O)O)cc(=O)c34)cccc2o1` [Disodium Cromoglycate], the percent effect was 0.271%.
Work on `NS(=O)(=O)c1ccc(NC(=O)OCCO)cc1` [sulocarbilate] yielded a percent effect of -1.04%.
In the case of `C[C@](N)(Cc1ccc(O)c(O)c1)C(=O)O` [Methyldopa], the percent effect is reported as -2.37%.
For `OC(CCN1CCCC1)(c1ccccc1)C1CCCCC1` (stereo not given) [procyclidine], the percent effect was -0.798%.
For `CCOC(=O)[C@H](CCc1ccccc1)N[C@@H](C)C(=O)N1C(=O)N(C)C[C@H]1C(=O)O` [imidapril], the percent effect was -1.97%.
`CC(=O)O[C@H]1C[C@@]2(C)[C@@H](C[C@@H](O)[C@H]3[C@@]4(C)CC[C@@H](O)[C@@H](C)[C@@H]4CC[C@@]32C)/C1=C(\CCC=C(C)C)C(=O)O` [Fusidic Acid] was tested, and the percent effect was -6.21%.
With `Cc1c(OCC(F)(F)F)ccnc1C[S@@+]([O-])c1nc2ccccc2[nH]1` [dexlansoprazole] the percent effect was -4.09%.
For `CC(CN(C)C)CN1c2ccccc2Sc2ccccc21` (stereo not given) [alimemazine], the percent effect was -4.1%.
`C[C@H]1O[C@@H](O[C@H]2[C@@H](O)C[C@H](O[C@H]3[C@@H](O)C[C@H](O[C@H]4CC[C@@]5(C)[C@H](CC[C@@H]6[C@@H]5C[C@@H](O)[C@]5(C)[C@@H](C7=CC(=O)OC7)CC[C@]65O)C4)O[C@@H]3C)O[C@@H]2C)C[C@H](O)[C@@H]1O` gave a percent effect of -16.7%.
Work on `NC(=O)c1cccnc1` [nicotinamide] yielded a percent effect of -2.83%.
`O=C(CCCl)NCc1ccccc1` [beclamide] gave a percent effect of -1.79%.
Molecule `CN1CC(=O)N=C1NC(=O)Nc1cccc(Cl)c1` [fenobam] has a percent effect of -16.3%.
`O=C1[C@@H]2[C@H]3CC[C@H](C3)[C@@H]2C(=O)N1C[C@@H]1CCCC[C@H]1CN1CCN(c2nsc3ccccc23)CC1` [lurasidone] was tested, and the percent effect was 0.846%.
Work on `C[C@H]1[C@H](O)O[C@@H]2O[C@@]3(C)CC[C@H]4[C@H](C)CC[C@@H]1[C@@]24OO3` yielded a percent effect of -0.779%.
`CC(=O)OCC(=O)[C@H]1CC[C@H]2[C@@H]3CCC4=CC(=O)CC[C@]4(C)[C@H]3CC[C@]12C` gave a percent effect of -2.55%.
`CC(=O)N[C@H](Cc1ccc2ccccc2c1)C(=O)N[C@H](Cc1ccc(Cl)cc1)C(=O)N[C@H](Cc1cccnc1)C(=O)N[C@@H](CO)C(=O)N(C)[C@@H](Cc1ccc(O)cc1)C(=O)N[C@H](CC(N)=O)C(=O)N[C@@H](CC(C)C)C(=O)N[C@@H](CCCCNC(C)C)C(=O)N1CCC[C@H]1C(=O)N[C@H](C)C(N)=O` [abarelix] was tested, and the percent effect was -3.22%.
With `CN(C(=O)CN(CCO)CC(=O)N(C)C(C)(C)Cc1ccccc1)C(C)(C)Cc1ccccc1` [oxetacaine] the percent effect was -2.38%.
For `NC(=O)NS(=O)(=O)c1ccc(N)cc1` [sulfacarbamide], the percent effect was -0.152%.
`OB1OCc2cc(F)ccc21` [Tavaborole] was tested, and the percent effect was -4.12%.
With `COc1cc(/C=C/C(=O)N2CCN(CC(=O)N3CCCC3)CC2)cc(OC)c1OC` [cinepazide] the percent effect was -1.32%.
`CCC(=O)O[C@H]1[C@H](O[C@@H]2[C@@H](C)[C@H](O[C@H]3C[C@@](C)(OC)[C@@H](O)[C@H](C)O3)[C@@H](C)C(=O)O[C@H](CC)[C@@](C)(O)[C@H](O)[C@@H](C)C(=O)[C@H](C)C[C@@]2(C)O)O[C@H](C)C[C@@H]1N(C)C` gave a percent effect of 1.31%.
Work on `CN[C@H](C(=O)N[C@H](C(=O)N(C)[C@H](/C=C(\C)C(=O)O)C(C)C)C(C)(C)C)C(C)(C)c1ccccc1` [taltobulin] yielded a percent effect of -9.62%.
Work on `Cc1c(OCC(F)(F)F)ccnc1C[S+]([O-])c1nc2ccccc2[nH]1` (stereo not given) [lansoprazole] yielded a percent effect of 3.76%.
In the case of `O=C(O)CCCN1CCC(O[C@@H](c2ccc(Cl)cc2)c2ccccn2)CC1` [Bepreve], the percent effect is reported as 0.384%.
For `CC[C@H]1OC(=O)[C@H](C)[C@@H](O[C@H]2C[C@@](C)(OC)[C@@H](O)[C@H](C)O2)[C@H](C)[C@@H](O[C@@H]2O[C@H](C)C[C@H](N(C)C)[C@H]2O)[C@](C)(O)C[C@@H](C)/C(=N\OCOCCOC)[C@H](C)[C@@H](O)[C@]1(C)O`, the percent effect was -1.6%.
Work on `C=C1C[C@H]2[C@@H]3C=C(C)C4=CC(=O)CC[C@]4(C)[C@H]3CC[C@]2(C)[C@@]1(OC(C)=O)C(C)=O` yielded a percent effect of -18.2%.
`CSC[C@H](NC(=O)[C@H](Cc1ccccc1)NC(=O)N1CCOCC1)C(=O)N[C@@H](CC1CCCCC1)[C@@H](O)C(=O)OC(C)C` [terlakiren] was tested, and the percent effect was -14.1%.
With `CC(C)(CO)NCC(O)c1ccccc1` (stereo not given) [fepradinol] the percent effect was -3.72%.
`COc1cc2cc(c1Cl)N(C)C(=O)C[C@H](OC(=O)[C@H](C)N(C)C(C)=O)[C@]1(C)O[C@H]1[C@H](C)[C@@H]1C[C@@](O)(NC(=O)O1)[C@H](OC)/C=C/C=C(\C)C2` [maitansine] was tested, and the percent effect was -0.162%.
In the case of `Oc1ccc(OCc2ccccc2)cc1` [monobenzone], the percent effect is reported as 4.19%.
For `C/C=C/C/C=C/CCC(=O)[C@H]1O[C@H]1C(N)=O` [Helicocerin], the percent effect was -9.07%.
`NS(=O)(=O)c1cc2c(cc1Cl)NC(CSCc1ccccc1)NS2(=O)=O` (stereo not given) [hydrobentizide] was tested, and the percent effect was 1.06%.
For `CC(C)(Oc1ccc(Cl)cc1)C(=O)O` [calcium clofibrate], the percent effect was 3.69%.
In the case of `c1ccc2c(c1)OCC(CN1CCCCC1)O2` (stereo not given) [piperoxan], the percent effect is reported as 3.12%.
